# Results are given in words; binding and its absence hold for the method and conditions named. Binding seen in cells or lysates may run through a third protein. A result given as binding can be weak or reduced; the word gives no strength. Tags and fused reporters may be left off the sequences shown.
# Molecular target: T1, Myc-tagged glucokinase regulatory protein (GKRP), wild type (human) (UniProt Q14397)
# T1 sequence: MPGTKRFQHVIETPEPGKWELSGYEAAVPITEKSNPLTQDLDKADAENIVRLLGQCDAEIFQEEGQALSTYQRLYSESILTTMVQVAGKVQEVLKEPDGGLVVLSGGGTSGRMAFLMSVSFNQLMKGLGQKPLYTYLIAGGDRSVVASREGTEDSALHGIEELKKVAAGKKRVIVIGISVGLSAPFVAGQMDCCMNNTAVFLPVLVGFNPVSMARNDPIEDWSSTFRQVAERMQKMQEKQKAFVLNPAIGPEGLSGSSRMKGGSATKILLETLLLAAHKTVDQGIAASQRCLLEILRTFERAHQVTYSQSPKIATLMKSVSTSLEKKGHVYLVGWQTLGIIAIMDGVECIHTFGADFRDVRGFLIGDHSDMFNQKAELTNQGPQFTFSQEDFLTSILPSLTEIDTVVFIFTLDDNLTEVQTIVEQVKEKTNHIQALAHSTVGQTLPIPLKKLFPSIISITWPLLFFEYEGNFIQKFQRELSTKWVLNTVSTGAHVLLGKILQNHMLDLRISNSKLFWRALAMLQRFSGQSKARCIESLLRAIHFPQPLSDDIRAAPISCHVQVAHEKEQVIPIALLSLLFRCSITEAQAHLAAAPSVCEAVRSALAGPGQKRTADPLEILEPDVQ
# Test: co-IP; HeLa cells cotransfected with the expression plasmids, lysed after 36 h (20 mM HEPES pH 7.4, 0.5% NP-40, 150 mM NaCl, 0.25% deoxycholate, 1 mM EDTA, TSA, NAM); 1 ug antibody overnight, protein G agarose 2 h at 4 C; immunoblot (GK-GKRP: IP anti-Myc or anti-V5, blot anti-His or anti-Myc)
substance,measurement,value
FLAG-tagged SIRT3 (enzyme),binding,binds
